Experimental data published in article PMC8641947.
These are yes or no findings as the source states them, for the method shown. In cells and extracts the contact can be indirect. A yes stands for co-enrichment or nearness to the bait. Other partners may have been found. Sequences can lack the tags named with a protein.

Target: T1, Flag-FBXO45 (human F-box/SPRY domain-containing protein 1 tagged with 3xFlag) (human) (UniProt P0C2W1)
T1 sequence: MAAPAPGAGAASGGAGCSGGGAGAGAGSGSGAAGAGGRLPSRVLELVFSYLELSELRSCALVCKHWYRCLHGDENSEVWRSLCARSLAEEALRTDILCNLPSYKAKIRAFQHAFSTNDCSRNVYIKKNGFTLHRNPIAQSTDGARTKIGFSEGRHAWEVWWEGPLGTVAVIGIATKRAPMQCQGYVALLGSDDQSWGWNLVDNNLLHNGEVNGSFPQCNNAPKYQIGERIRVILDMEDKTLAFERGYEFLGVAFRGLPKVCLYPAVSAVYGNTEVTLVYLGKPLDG
Experiment: affinity purification with mass spectrometry; HCCLM3 cells transfected with Flag-tagged FBXO45; lysates precipitated with anti-Flag M2 IgG or normal nontargeting IgG, then mass spectrometry

binding: binds
Substance: Insulin-like growth factor 2 mRNA-binding protein 1 (IGF2BP1), endogenous (from UniProt Q9NZI8-1 1-577)
